Data: the supplement of paper PMC6078165
± gives the standard deviation of the averaged measurements. Values are relative to the signal before dosing, not to a vehicle control; the signal also falls without drug.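 Labels refer to human fibroblasts, largely primary: uterine (C12385, HUF), lung (H6013), bone (Hs27A), adrenal (HADF), skin (WS1), plus mammary HMF and breast cancer-associated Hs343T. Cancer lines are basal-like or mesenchymal-like triple-negative breast cancer. The paper counts as hits responses shifting over 3x the replicate standard deviation. The tissue of the other fibroblasts is not given here.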

Tested on: Hs578T
Experiment: relative JC-1 red fluorescence (viability) vs pre-drug, coculture with fibroblast (fraction); higher = more viable cancer cells
Description: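 JC-1 labelled TNBC cells cocultured 1:1 (1,500 cells each) with CellTrace Violet stained primary or stromal fibroblasts in 384-well plates in FluoroBrite medium, treated with one of 42 anticancer drugs at 0.1, 1, 10 or 100 uM. JC-1 red fluorescence (mitochondrial integrity in cancer cells only) was read by plate reader every 8 h for 72 h. Values are normalised to each well's pre-drug value. The stock of one drug was tenfold lower, so its dose labels may be too high.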

Nc1ncn([C@@H]2O[C@H](CO)[C@@H](O)[C@H]2O)c(=O)n1 [Azacitidine]
relative JC-1 red fluorescence
Conditions	8 h	16 h	24 h	32 h	40 h	48 h	56 h	64 h	72 h
10 µM	0.88 ± 0.014	0.806 ± 0.019	0.766 ± 0.011	0.723 ± 0.0044	0.662 ± 0.019	0.621 ± 0.02	0.595 ± 0.017	0.56 ± 0.015	0.557 ± 0.011
100 µM	0.837 ± 0.025	0.742 ± 0.016	0.6994 ± 0.0045	0.6856 ± 0.004	0.638 ± 0.022	0.606 ± 0.029	0.595 ± 0.037	0.562 ± 0.04	0.553 ± 0.056

relative JC-1 red fluorescence
Conditions	8 h	16 h	24 h	32 h	40 h	48 h	56 h	64 h	72 h
10 µM, coculture fibroblast: C12385	0.786 ± 0.017	0.7109 ± 0.0049	0.653 ± 0.0097	0.58 ± 0.03	0.512 ± 0.03	0.48 ± 0.041	0.451 ± 0.04	0.426 ± 0.037	0.407 ± 0.037
10 µM, coculture fibroblast: H6013	0.808 ± 0.0098	0.772 ± 0.0056	0.737 ± 0.011	0.694 ± 0.0092	0.6546 ± 0.0043	0.6308 ± 0.0045	0.608 ± 0.0031	0.596 ± 0.0028	0.574 ± 0.011
10 µM, coculture fibroblast: H6019	0.776 ± 0.016	0.734 ± 0.052	0.721 ± 0.073	0.634 ± 0.076	0.605 ± 0.079	0.595 ± 0.079	0.577 ± 0.077	0.576 ± 0.083	0.561 ± 0.085
10 µM, coculture fibroblast: H6076	0.8481 ± 0.00091	0.7912 ± 0.0012	0.7662 ± 0.0056	0.755 ± 0.022	0.711 ± 0.028	0.711 ± 0.029	0.694 ± 0.036	0.689 ± 0.038	0.688 ± 0.041
10 µM, coculture fibroblast: H6231	0.9152 ± 0.0028	0.8441 ± 0.0069	0.803 ± 0.015	0.752 ± 0.03	0.693 ± 0.048	0.657 ± 0.053	0.606 ± 0.068	0.578 ± 0.067	0.551 ± 0.077
10 µM, coculture fibroblast: HADF	0.874 ± 0.054	0.855 ± 0.088	0.836 ± 0.12	0.8 ± 0.14	0.774 ± 0.16	0.751 ± 0.17	0.73 ± 0.19	0.721 ± 0.19	0.697 ± 0.2
10 µM, coculture fibroblast: HCFa	0.797 ± 0.012	0.7509 ± 0.0065	0.715 ± 0.009	0.663 ± 0.017	0.613 ± 0.015	0.6 ± 0.0089	0.579 ± 0.011	0.5695 ± 0.0025	0.5395 ± 0.0047
10 µM, coculture fibroblast: HCPF	0.885 ± 0.013	0.809 ± 0.019	0.772 ± 0.017	0.737 ± 0.014	0.678 ± 0.0084	0.651 ± 0.019	0.625 ± 0.018	0.582 ± 0.023	0.555 ± 0.035
10 µM, coculture fibroblast: HHSteC	0.832 ± 0.0096	0.7828 ± 0.0033	0.7518 ± 0.0075	0.708 ± 0.016	0.657 ± 0.03	0.632 ± 0.028	0.607 ± 0.032	0.587 ± 0.037	0.558 ± 0.034
10 µM, coculture fibroblast: HMF	0.8657 ± 0.0071	0.797 ± 0.022	0.7598 ± 0.0055	0.7385 ± 0.0018	0.6828 ± 0.0044	0.656 ± 0.007	0.6259 ± 0.0046	0.5982 ± 0.0022	0.573 ± 0.013
10 µM, coculture fibroblast: HPFa	0.866 ± 0.029	0.822 ± 0.021	0.77 ± 0.02	0.709 ± 0.024	0.671 ± 0.021	0.642 ± 0.014	0.614 ± 0.015	0.598 ± 0.016	0.567 ± 0.024
10 µM, coculture fibroblast: HUF	0.853 ± 0.032	0.7512 ± 0.0046	0.76 ± 0.019	0.668 ± 0.019	0.616 ± 0.024	0.586 ± 0.028	0.547 ± 0.031	0.533 ± 0.028	0.517 ± 0.027
10 µM, coculture fibroblast: Hs27A	0.882 ± 0.015	0.828 ± 0.013	0.8 ± 0.043	0.768 ± 0.048	0.717 ± 0.071	0.7 ± 0.082	0.677 ± 0.093	0.671 ± 0.097	0.624 ± 0.093
10 µM, coculture fibroblast: Hs343T	0.8952 ± 0.005	0.79641 ± 0.00025	0.7657 ± 0.0059	0.7473 ± 0.0023	0.685 ± 0.0028	0.6609 ± 0.0026	0.633 ± 0.015	0.599 ± 0.014	0.581 ± 0.0082
10 µM, coculture fibroblast: WS1	0.787 ± 0.019	0.69 ± 0.014	0.672 ± 0.0093	0.597 ± 0.01	0.546 ± 0.016	0.526 ± 0.019	0.499 ± 0.019	0.492 ± 0.017	0.484 ± 0.018
100 µM, coculture fibroblast: C12385	0.799 ± 0.033	0.673 ± 0.055	0.635 ± 0.022	0.57 ± 0.021	0.5274 ± 0.0031	0.498 ± 0.0073	0.4723 ± 0.0031	0.46 ± 0.017	0.449 ± 0.026
100 µM, coculture fibroblast: H6013	0.777 ± 0.072	0.722 ± 0.041	0.702 ± 0.066	0.697 ± 0.068	0.664 ± 0.073	0.658 ± 0.082	0.635 ± 0.09	0.633 ± 0.1	0.614 ± 0.11
100 µM, coculture fibroblast: H6019	0.746 ± 0.032	0.679 ± 0.025	0.68 ± 0.051	0.595 ± 0.056	0.56 ± 0.088	0.549 ± 0.12	0.541 ± 0.14	0.539 ± 0.16	0.54 ± 0.17
100 µM, coculture fibroblast: H6076	0.8386 ± 0.0076	0.717 ± 0.021	0.688 ± 0.03	0.664 ± 0.017	0.623 ± 0.024	0.619 ± 0.039	0.586 ± 0.054	0.569 ± 0.058	0.561 ± 0.076
100 µM, coculture fibroblast: H6231	0.853 ± 0.032	0.756 ± 0.04	0.714 ± 0.047	0.687 ± 0.049	0.637 ± 0.051	0.614 ± 0.041	0.57 ± 0.037	0.546 ± 0.038	0.523 ± 0.033
100 µM, coculture fibroblast: HADF	0.855 ± 0.039	0.76 ± 0.037	0.722 ± 0.065	0.689 ± 0.083	0.666 ± 0.1	0.652 ± 0.12	0.619 ± 0.15	0.607 ± 0.16	0.585 ± 0.17
100 µM, coculture fibroblast: HCFa	0.794 ± 0.018	0.763 ± 0.047	0.744 ± 0.048	0.711 ± 0.083	0.668 ± 0.082	0.657 ± 0.079	0.623 ± 0.081	0.614 ± 0.082	0.592 ± 0.081
100 µM, coculture fibroblast: HCPF	0.878 ± 0.035	0.788 ± 0.012	0.7557 ± 0.0063	0.7362 ± 0.0034	0.6907 ± 0.00082	0.6658 ± 0.0027	0.65 ± 0.0065	0.612 ± 0.0076	0.587 ± 0.01
100 µM, coculture fibroblast: HHSteC	0.818 ± 0.014	0.7722 ± 0.0031	0.735 ± 0.017	0.705 ± 0.049	0.65 ± 0.072	0.613 ± 0.078	0.588 ± 0.084	0.575 ± 0.086	0.548 ± 0.082
100 µM, coculture fibroblast: HMF	0.812 ± 0.019	0.747 ± 0.016	0.715 ± 0.026	0.708 ± 0.021	0.663 ± 0.019	0.652 ± 0.011	0.624 ± 0.0082	0.5978 ± 0.0034	0.584 ± 0.012
100 µM, coculture fibroblast: HPFa	0.8564 ± 0.0046	0.783 ± 0.014	0.738 ± 0.031	0.694 ± 0.032	0.665 ± 0.036	0.647 ± 0.041	0.61 ± 0.051	0.591 ± 0.043	0.563 ± 0.037
100 µM, coculture fibroblast: HUF	0.835 ± 0.024	0.686 ± 0.012	0.72356 ± 0.0007	0.643 ± 0.017	0.6008 ± 0.0029	0.57587 ± 0.00023	0.544 ± 0.006	0.535 ± 0.0097	0.527 ± 0.011
100 µM, coculture fibroblast: Hs27A	0.867 ± 0.024	0.829 ± 0.018	0.794 ± 0.015	0.78 ± 0.012	0.745 ± 0.008	0.751 ± 0.02	0.72 ± 0.022	0.709 ± 0.035	0.652 ± 0.031
100 µM, coculture fibroblast: Hs343T	0.8754 ± 0.0064	0.7617 ± 0.0046	0.699 ± 0.021	0.688 ± 0.021	0.633 ± 0.027	0.604 ± 0.025	0.564 ± 0.017	0.534 ± 0.026	0.513 ± 0.029
100 µM, coculture fibroblast: WS1	0.788 ± 0.019	0.7106 ± 0.00079	0.6813 ± 0.0016	0.598 ± 0.032	0.546 ± 0.041	0.521 ± 0.04	0.488 ± 0.034	0.476 ± 0.023	0.463 ± 0.017
